Assay results: patent publication WO2017222556A2 (dated 2017)
Results are given in words; binding and its absence hold for the method and conditions named. Some results given as binding are weak or reduced against the parent protein; the word gives no strength. For some of these results: Sequences can lack the tags named with a protein.

Protein sequences, listed by entry. Tags and fused reporters are not part of them. Residues count along the entry.
UniProt P26718, residues 78-216: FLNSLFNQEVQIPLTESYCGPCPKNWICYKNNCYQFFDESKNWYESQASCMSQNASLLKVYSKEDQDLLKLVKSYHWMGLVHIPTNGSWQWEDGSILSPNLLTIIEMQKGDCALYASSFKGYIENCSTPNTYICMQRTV

T1: mouse NKG2D-Fc (mouse) (UniProt O54709)
T1 sequence (looked up): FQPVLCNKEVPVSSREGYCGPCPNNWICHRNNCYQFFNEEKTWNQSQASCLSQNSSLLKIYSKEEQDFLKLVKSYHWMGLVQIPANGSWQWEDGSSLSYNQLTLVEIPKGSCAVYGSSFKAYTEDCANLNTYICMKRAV


Key:
human NKG2D-Fc (human) [1] = molecular target: human NKG2D-Fc (human) (UniProt P26718); experiment: competition ELISA: inhibition of human NKG2D-Fc binding to plate-coated MICA
mouse NKG2D-Fc (mouse) = molecular target: T1, mouse NKG2D-Fc (mouse); experiment: competition ELISA: inhibition of mouse NKG2D-Fc binding to plate-coated MICA
human NKG2D-Fc (human) [2] = molecular target: human NKG2D-Fc (human) (UniProt P26718); experiment: competition ELISA: inhibition of human NKG2D-Fc binding to plate-coated WT sMICA
[3] = molecular target: biotinylated human NKG2D (human) (UniProt P26718); experiment: biolayer interferometry (Octet), surface-coated biotinylated human NKG2D, titration 1-100 nM

Row | binding (human NKG2D-Fc (human) [1]) | binding (mouse NKG2D-Fc (mouse)) | binding (human NKG2D-Fc (human) [2]) | binding [3] | Binder
1 | binds | binds | binds | – | al-a2 variant 17 (ligand) EPHSLRYNLTVLSWDGSVQSGFLTEVHLDGQPFLRCDRQKCRAKPQGQWAEDVLGNKTWDRETRDLTLWGKDLRMTLAHIKDQKEGLHSLQEIRVCEIHEDNSTRSSQHFYYDGELFLSQNLETLEWTMPQSSRAQTLAMNVRNFLKEDAMETDTHYHAMRADCLQELRRYLKSGVVLRRTVPPMVQVTRSEASGGSGDRVTITCRASQDVSTAVAWYQQKPGKAPKLLIYSASFLYSGVPSRFSGSGSGTDFTLTISSLQPEDFATYYCQQSYTTPPTFGQGTKVEIKGGSSRSSSSGGGGSGGGGEVQLVESGGGLVQPGGSLRLSCAASGFTFTSTGISWVRQAPGKGLEWVGRIYPTNGSTNYADSVKGRFTISADTSKNTAYLQMNSLRAEDTAVYYCARTYGIYDLYVDYTEYVMDYWGQGTLVTVSSGGSSRSSSSGGGGSGGGGDIQMTQSPSSLSASGGSGQITVTCRASGFYPWNITLSWRQDGVSLSHDTQQWGDVLPDGQGTYQTWVATRISQGEEQRFTCYMEHSGQHSTHPVPSGKGSHHHHHH
2 | – | – | – | binds | al-a2 variant 20 (ligand) EPHSLRYNLTVLSWDGSVQSGFLTEVHLDGQPFLRCDRQKCRAKPQGQWAEDVLGNKTWDRETRDLTAWGKDLRMTLAHIKDQKEGLHSLQEIRVCEIHEDNSTRSSQHFYYDGELFLSQNLETLEWTMPQSSRAQTLAMNVRNFLKEDAMQTDTHYRAMHADCLFELRRYLKSGVVLRRTVPPMVQVTRSEASGGSGDRVTITCRASQDVSTAVAWYQQKPGKAPKLLIYSASFLYSGVPSRFSGSGSGTDFTLTISSLQPEDFATYYCQQSYTTPPTFGQGTKVEIKGGSSRSSSSGGGGSGGGGEVQLVESGGGLVQPGGSLRLSCAASGFTFTSTGISWVRQAPGKGLEWVGRIYPTNGSTNYADSVKGRFTISADTSKNTAYLQMNSLRAEDTAVYYCARTYGIYDLYVDYTEYVMDYWGQGTLVTVSSGGSSRSSSSGGGGSGGGGDIQMTQSPSSLSASGGSGQITVTCRASGFYPWNITLSWRQDGVSLSHDTQQWGDVLPDGQGTYQTWVATRISQGEEQRFTCYMEHSGQHSTHPVPSGKGSHHHHHH
3 | binds | binds | binds | – | al-a2 variant 18 (ligand) EPHSLRYNLTVLSWDGSVQPGFLTEVHLDGQPFLRCDRQKCRAKPQGQWAEDVLGNKTWDRETRDLTLWGKDLRMTLAHIKDQKEGLHSLQEIRVCEIHEDNSTRSSQHFYYDGELFLSQNLETLEWTMPQSSRAQTLAMNVRNFLKEDAMETDTHYHAMRADCLQELRRYLKSGVVLRRTVPPMVQVTRSEASGGSGDRVTITCRASQDVSTAVAWYQQKPGKAPKLLIYSASFLYSGVPSRFSGSGSGTDFTLTISSLQPEDFATYYCQQSYTTPPTFGQGTKVEIKGGSSRSSSSGGGGSGGGGEVQLVESGGGLVQPGGSLRLSCAASGFTFTSTGISWVRQAPGKGLEWVGRIYPTNGSTNYADSVKGRFTISADTSKNTAYLQMNSLRAEDTAVYYCARTYGIYDLYVDYTEYVMDYWGQGTLVTVSSGGSSRSSSSGGGGSGGGGDIQMTQSPSSLSASGGSGQITVTCRASGFYPWNITLSWRQDGVSLSHDTQQWGDVLPDGQGTYQTWVATRISQGEEQRFTCYMEHSGQHSTHPVPSGKGSHHHHHH
